# According to the supplement of paper PMC8728848:
# Some of the results follow.
# B1: Langerin K299A/K313A (Homo sapiens), Q9UJ71 (protein)
# chain: STLNAQIPELKSDLEKASALNTKIRALQGSLENMSKLLKRQNDILQVVSQGWKYFKGNFYYFSLIPKTWYSAEQFCVSRNSHLTSVTSESEQEFLYKTAGGLIYWIGLTKAGMEGDWSWVDDTPFNKVQSARFWIPGEPNNAGNNEHCGNIAAPSLQAWNDAPCDATFLFICKRPYVPSEP
# Columns and labels:
# Experiment in all cases: glycan array binding signal (z-score within array); higher = stronger binding
# Conditions in all cases: glycan notation: IUPAC condensed, linker removed
# [1] = target: GlcNAc(b1-2)Gal(b1-3)GalNAc
# Method in brief: (§1)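 Glycan array data were curated from 3228 arrays in the Consortium for Functional Glycomics database and kept only where the protein sequence was available. Glycan names were converted to IUPAC-condensed notation, and columns mapping to the same glycan were averaged. The binding signal is a within-array Z-score, averaged across arrays of the same protein sequence at different concentrations or buffers and across linkers. Negative Z-scores can be read as non-binding.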
# [2] = target: GlcNAc(b1-2)Man(a1-3)[GlcNAc(b1-2)Man(a1-6)]Man(b1-4)GlcNAc(b1-4)GlcNAc
# Method in brief: as §1
# [3] = target: GlcNAc(b1-2)Man(a1-3)[GlcNAc(b1-2)Man(a1-6)]Man(b1-4)GlcNAc(b1-4)[Fuc(a1-6)]GlcNAc
# Method in brief: as §1
# [4] = target: GlcNAc(b1-2)Man(a1-3)[GlcNAc(b1-4)][GlcNAc(b1-2)Man(a1-6)]Man(b1-4)GlcNAc(b1-4)GlcNAc
# Method in brief: as §1
# [5] = target: GlcNAc(b1-2)Man(a1-3)[GlcNAc(b1-4)][GlcNAc(b1-2)Man(a1-6)]Man(b1-4)GlcNAc(b1-4)[Fuc(a1-6)]GlcNAc
# Method in brief: as §1
# [6] = target: GlcNAc(b1-2)[GlcNAc(b1-4)]Man(a1-3)[GlcNAc(b1-2)Man(a1-6)]Man(b1-4)GlcNAc(b1-4)GlcNAc
# Method in brief: as §1
# [7] = target: GlcNAc(b1-2)[GlcNAc(b1-4)]Man(a1-3)[GlcNAc(b1-4)][GlcNAc(b1-2)Man(a1-6)]Man(b1-4)GlcNAc(b1-4)GlcNAc
# Method in brief: as §1
# [8] = target: GlcNAc(b1-2)[GlcNAc(b1-4)]Man(a1-3)[GlcNAc(b1-4)][GlcNAc(b1-2)[GlcNAc(b1-6)]Man(a1-6)]Man(b1-4)GlcNAc(b1-4)GlcNAc
# Method in brief: as §1
# [9] = target: GlcNAc(b1-2)[GlcNAc(b1-4)]Man(a1-3)[GlcNAc(b1-4)][GlcNAc(b1-2)[GlcNAc(b1-6)]Man(a1-6)]Man(b1-4)GlcNAc(b1-4)[Fuc(a1-6)]GlcNAc
# Method in brief: as §1
# [10] = target: GlcNAc(b1-2)[GlcNAc(b1-6)]Man(a1-6)[GlcNAc(b1-2)Man(a1-3)]Man(b1-4)GlcNAc(b1-4)GlcNAc
# Method in brief: as §1
# [11] = target: GlcNAc(b1-2)[GlcNAc(b1-6)]Man(a1-6)[GlcNAc(b1-2)Man(a1-3)]Man(b1-4)GlcNAc(b1-4)[Fuc(a1-6)]GlcNAc
# Method in brief: as §1
# [12] = target: GlcNAc(b1-2)[GlcNAc(b1-6)]Man(a1-6)[GlcNAc(b1-4)][GlcNAc(b1-2)Man(a1-3)]Man(b1-4)GlcNAc(b1-4)GlcNAc
# Method in brief: as §1
# [13] = target: GlcNAc(b1-3)Fuc
# Method in brief: as §1
# [14] = target: GlcNAc(b1-3)Gal
# Method in brief: as §1
# [15] = target: GlcNAc(b1-3)Gal(b1-3)GalNAc
# Method in brief: as §1
# [16] = target: GlcNAc(b1-3)Gal(b1-4)Glc
# Method in brief: as §1
# [17] = target: GlcNAc(b1-3)Gal(b1-4)GlcNAc
# Method in brief: as §1
# [18] = target: GlcNAc(b1-3)Gal(b1-4)GlcNAc(b1-2)Man(a1-3)[GlcNAc(b1-3)Gal(b1-4)GlcNAc(b1-2)Man(a1-6)]Man(b1-4)GlcNAc(b1-4)GlcNAc
# Method in brief: as §1
# [19] = target: GlcNAc(b1-3)Gal(b1-4)GlcNAc(b1-2)Man(a1-3)[GlcNAc(b1-3)Gal(b1-4)GlcNAc(b1-2)Man(a1-6)]Man(b1-4)GlcNAc(b1-4)[Fuc(a1-6)]GlcNAc
# Method in brief: as §1
# [20] = target: GlcNAc(b1-3)Gal(b1-4)GlcNAc(b1-2)[GlcNAc(b1-3)Gal(b1-4)GlcNAc(b1-6)]Man(a1-6)[GlcNAc(b1-3)Gal(b1-4)GlcNAc(b1-2)Man(a1-3)]Man(b1-4)GlcNAc(b1-4)GlcNAc
# Method in brief: as §1
# [21] = target: GlcNAc(b1-3)Gal(b1-4)GlcNAc(b1-3)Gal(b1-4)GlcNAc
# Method in brief: as §1
# [22] = target: GlcNAc(b1-3)Gal(b1-4)GlcNAc(b1-3)Gal(b1-4)GlcNAc(b1-2)Man(a1-3)[GlcNAc(b1-3)Gal(b1-4)GlcNAc(b1-3)Gal(b1-4)GlcNAc(b1-2)Man(a1-6)]Man(b1-4)GlcNAc(b1-4)GlcNAc
# Method in brief: as §1
binder,measurement,setting,value
B1,glycan array binding signal (z-score),[1],0.486
same,glycan array binding signal (z-score),[2],-0.408
same,glycan array binding signal (z-score),[3],0.474
same,glycan array binding signal (z-score),[4],-0.464
same,glycan array binding signal (z-score),[5],-0.367
same,glycan array binding signal (z-score),[6],-0.579
same,glycan array binding signal (z-score),[7],0.535
same,glycan array binding signal (z-score),[8],-0.346
same,glycan array binding signal (z-score),[9],-0.967
same,glycan array binding signal (z-score),[10],-0.671
same,glycan array binding signal (z-score),[11],0.734
same,glycan array binding signal (z-score),[12],-0.875
same,glycan array binding signal (z-score),[13],-0.593
same,glycan array binding signal (z-score),[14],-0.419
same,glycan array binding signal (z-score),[15],-0.072
same,glycan array binding signal (z-score),[16],-0.146
same,glycan array binding signal (z-score),[17],-0.768
same,glycan array binding signal (z-score),[18],0.619
same,glycan array binding signal (z-score),[19],1.34
same,glycan array binding signal (z-score),[20],3.64
same,glycan array binding signal (z-score),[21],-0.585
same,glycan array binding signal (z-score),[22],0.828

# Given bar-delimited: entries from further up
binder | measurement | setting | value
B1 | glycan array binding signal (z-score) | [19] | 1.34
same | glycan array binding signal (z-score) | [20] | 3.64
